Assay [1] deals with ARL3::HA::YFP (C. reinhardtii) (UniProt A8ISN6). Description: co-IP.
Assay [2] shares this target. The experiment in a line: co-IP. The source holds these as a separate data set.

The chains behind the UniProt entries cited, without tags or fusion partners.
UniProt A8ISN6, whole entry: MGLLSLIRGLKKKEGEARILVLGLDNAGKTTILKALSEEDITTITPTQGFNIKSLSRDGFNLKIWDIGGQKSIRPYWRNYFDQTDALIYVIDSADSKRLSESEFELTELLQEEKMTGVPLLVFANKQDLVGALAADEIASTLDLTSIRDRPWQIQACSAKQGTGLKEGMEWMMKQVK
UniProt A8HYP5, whole entry: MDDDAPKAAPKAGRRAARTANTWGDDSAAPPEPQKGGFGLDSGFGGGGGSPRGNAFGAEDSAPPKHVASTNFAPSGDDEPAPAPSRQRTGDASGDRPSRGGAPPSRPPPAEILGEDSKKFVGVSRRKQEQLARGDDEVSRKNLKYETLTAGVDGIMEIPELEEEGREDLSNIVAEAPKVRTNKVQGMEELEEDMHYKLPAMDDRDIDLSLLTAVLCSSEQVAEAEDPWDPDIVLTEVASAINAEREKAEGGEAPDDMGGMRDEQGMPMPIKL

The source of these data is publication doi:10.1101/2021.11.19.469163.

Like-named read-outs stand apart in the source and are kept apart here. Results are given in words; binding and its absence hold for the method and conditions named. Binding seen in cells or lysates may run through a third protein.

As for IFT43 (from UniProt A8HYP5 1-272), the binding entry in assay [1] and in assay [2] was “no binding” in each case.

B1: IFT139 (protein, UniProt A9XPA6 1-1355)
chain: MADRVLALVHYYAREGYFRHVQTVCNEVLKKRPGDGVLTFWRAYGLLMEGNTADAMRDLSSIQGNSDLELAVAAAQLLGHESAKVPDHDAIIDLQAKLEIEERTASDQPCLHLASFYLYTKSKERARGLVERVLRNQPDMVPAQVLLGWIIISQQQDDEYDMLFDESELDDALSHFEQAVEHDHNDLEALLGKAKIMELKKQLGPCLDVLTEINVRFGWFVPALVEKTRMLMMLGDWEQVTETLQRVLAADQQNIMAQAWNCMISLTREGNNKQAAKQLQDLFSSMNRQEPKNAELFFRVARPFGRLACSDPTLLGITYLMADRAAQLRPEMAAYVVEAAAQKLMMDETTNATERFTQALQLDELNLEANAGALEAQIMAGELEEAAGQIMFLEDMFTNAAAAGGGKRKGRGTGDMDDDPDMADPSLGTSSDNPTLLYLKGLLAWKQGMPSEGLGLLERSIAALFSAAADFHGPSLELYAALNPARITAVVRLLLQSIGGEPRAPTEAPSPLISKVTRALDLLNKQAPALQESALLHARALYLNGNLDGALRKAGEILRMNPEESSAHLLICSVYVAQDKPELAVSALDQAVSSNFAIRETPLYHVVQAKVLVANNKLDDAKRVLESAMNLPGVRTALTVQQRARLGRKVVEPTLHERATVYLLLADVLARQSKIPDAPEAKKYIQDAIREFEGTSEEVRVTVADCELAIARGDVEGALKKLRRIPKESPHYVKARMAMADIYLRHRKDKAAYIKCYMDLVDHTPDYDSYCMLGEAFMQIQEPEKAVRAFESALEFSPKDVDLITRCARALVTSHDYQRAIDYYTKAIANARGGAQHALQLELGNLLVRLRQYPAATAAINKALERNRDGLPATENLQLDVEAWSMLAKVHKGKLEMEGYSQAQSRALELQKQLLLKLRGELPEAVALQRERTAAICFDLAEQSKRARQFDRAMELYMEALRHHDTHVPSMLAVAKLHLANGDTDACQAQCVTLLKHDPDNEEASIMLAELMFHKEHYDTAIYHFQQLLERSPNHYGALAQLILLLRRAGRLEDVPRYFALAEAGSPKAVMDPGYHYCKGIYNRYINNPREALKELNLARKDTRWGSQAILHMVEIYLNPDNDAVWEEKENADTPESRQAVATARSLLKQVRGADTTTQRYRVLESYAIMAGKDKNEIEASLNVLLDLANQDPNNVPVLLAMATGFMMLKQTPKARNQLKRVQKIQYKPDEAEEFERSWLLLADIHIQGGKYDLAQDLCQKCLKYNKSCAKAWEIMGQIMEREQAYKDAADHYENAWKHENQASAQVGFKLAFNYLKARRYVEAVDVCHKVIKAFPDYPKIRKEILEKARMGLKP
In the case of B1, the binding result in assay [1] and in assay [2] was “no binding” throughout.

B2: IFT57 (protein, UniProt Q2XQY7 1-469)
chain: MSSKRGGRSSLAKAPEEAVNGEAFAPEASPPPPGDDGDAGGEDGGAPAPPPPPATKGGPVAVGRSLEIQTTPDVCMEMLADKLKLLNYEADFCRKKKPYRKPLSRLYFAVPLANSSEQFFYFTSLATWLLGLAGVELPAPKEFDDPNLTCQNILGAVKKLGFAPPSYHPTKLTVGNGKEVVGVLDGLVDFVLERRHHKYSRPAYGNDGQPEEGVQLDDEAEAAAMEGADELAMPAQNQADDDEEEEGVYVDPGRGDAAGPGTGASAAMDAEKAVLVSKVDPTLWKIELERVAPKLRITIAADSKDWRSHLDEAHQHKEVISKAWPDSKTSLERLRADLNGTLEKLQTREKFLNEQFESLMQQYRAARTTFTDVQETYNRKTEAVADRNQEMHRIGETLEEVKAMMDEKGSNIADATPVARIKTAIKQLNKELHDMEVRIGVVSHTLLQLSLRNKRLLQAQAALSDEEED
B2: the binding entry in assay [1] and in assay [2] was “no binding” throughout.
